Values from PubChem BioAssay AID652259 (Drosophila RNAi Screening Center, 2013)
The deposit covers about 22,000 reagents; this is an unselected part of those with a known target gene and a result. In the full data, 233 (1.1%) are marked active. 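Light values are raw, unnormalised plate reads; the ratio scores behind the reporter calls were not deposited.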 Unmarked entries are inactive. The numbers tell different reagents against one gene apart. Names joined by + are all predicted targets of the reagent. Not stated in the record: the amount of reagent, the time to read-out, the dose of the treatment.

- Assay: 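Genome-wide hunt for genes that control Wingless pathway activity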 (primary screen)
- Cell system: Drosophila clone 8 imaginal disc epithelial cells
- Reagent: long dsRNA against Drosophila genes
- Challenge: pathway stimulated by co-transfected Wingless expression plasmid
- Measurement: 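Firefly luciferase from a tcf-site Wingless reporter, measured alongside co-transfected Renilla luciferase that tracks transfection; pathway stimulated by a Wingless plasmid; the firefly-to-Renilla ratio is not deposited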
- Scale: firefly reporter light: higher = more Wg reporter light, before normalisation; Renilla control light: higher = more transfected or surviving cells
- Rule for the call: 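Strong candidates differ from their plate mean by at least two out of four per-plate statistical tests; weak candidates meet just one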
- Calls: active = candidate regulator (raises or lowers reporter); inactive = not a candidate

CG18324 (GeneID 36568) scored firefly reporter light, replicate 1 = 11776; Renilla control light, replicate 1 = 3288.
Knock-down of Nubpl (GeneID 35452) resulted in: firefly reporter light, replicate 1 = 9701; Renilla control light, replicate 1 = 2824.
Gart (GeneID 33986) gave firefly reporter light, replicate 1 = 4151; firefly reporter light, replicate 2 = 4295; Renilla control light, replicate 1 = 944; Renilla control light, replicate 2 = 1746.
After knock-down of CG13494 (GeneID 37497) the results were firefly reporter light, replicate 1 = 3402; firefly reporter light, replicate 2 = 11696; Renilla control light, replicate 1 = 1209; Renilla control light, replicate 2 = 3628.
Knock-down of CG12268 (GeneID 42833) resulted in: firefly reporter light, replicate 1 = 16152; Renilla control light, replicate 1 = 14854.
CG8206 (GeneID 32516) showed firefly reporter light, replicate 1 = 1865; firefly reporter light, replicate 2 = 3320; Renilla control light, replicate 1 = 540; Renilla control light, replicate 2 = 1430.
For CG44014 + CG44013 the deposit lists firefly reporter light, replicate 1 = 20935; Renilla control light, replicate 1 = 5031.
Against Sidpn (GeneID 35168), the entry reads firefly reporter light, replicate 1 = 13564; Renilla control light, replicate 1 = 2441.
Knock-down of Chpf (GeneID 32259) #1 came out at: firefly reporter light, replicate 1 = 20210; Renilla control light, replicate 1 = 9829.
With knock-down of Chpf (GeneID 32259) #2 the results were firefly reporter light, replicate 1 = 1991; firefly reporter light, replicate 2 = 7788; Renilla control light, replicate 1 = 949; Renilla control light, replicate 2 = 2259.
After knock-down of CG7747 (GeneID 36820), the screen gave firefly reporter light, replicate 1 = 10548; Renilla control light, replicate 1 = 3356.
Knock-down of Blos1 (GeneID 246439) gave: firefly reporter light, replicate 1 = 3680; Renilla control light, replicate 1 = 1632.
Depletion of CG3726 (GeneID 31525) gave: firefly reporter light, replicate 1 = 3802; firefly reporter light, replicate 2 = 10145; Renilla control light, replicate 1 = 1273; Renilla control light, replicate 2 = 3553.
Depletion of bigmax (GeneID 43293) resulted in: firefly reporter light, replicate 1 = 4424; firefly reporter light, replicate 2 = 9639; Renilla control light, replicate 1 = 1734; Renilla control light, replicate 2 = 3523.
With knock-down of CG9471 (GeneID 41197), the screen gave firefly reporter light, replicate 1 = 12324; Renilla control light, replicate 1 = 3275.
comt (GeneID 47091) gave firefly reporter light, replicate 1 = 14571; Renilla control light, replicate 1 = 7376.
Against CG30196 (GeneID 37595) the deposit lists firefly reporter light, replicate 1 = 2865; firefly reporter light, replicate 2 = 10499; Renilla control light, replicate 1 = 720; Renilla control light, replicate 2 = 4227.
Sec23 (GeneID 40694) scored firefly reporter light, replicate 1 = 6356; Renilla control light, replicate 1 = 2848.
Lsd-2 (GeneID 32437) showed firefly reporter light, replicate 1 = 2502; firefly reporter light, replicate 2 = 11802; Renilla control light, replicate 1 = 971; Renilla control light, replicate 2 = 4048.
Naa30B (GeneID 317976) showed firefly reporter light, replicate 1 = 3713; Renilla control light, replicate 1 = 2464.
With knock-down of Prp40 (GeneID 33513), the screen gave firefly reporter light, replicate 1 = 7509; Renilla control light, replicate 1 = 5344.
Knock-down of Cyp9f3 (GeneID 3772405) resulted in: firefly reporter light, replicate 1 = 11958; Renilla control light, replicate 1 = 3171.
After knock-down of CG3909 (GeneID 41226) the results were firefly reporter light, replicate 1 = 11056; Renilla control light, replicate 1 = 2161.
Pp2C1 (GeneID 31404) showed firefly reporter light, replicate 1 = 2833; firefly reporter light, replicate 2 = 12411; Renilla control light, replicate 1 = 556; Renilla control light, replicate 2 = 995.
Against CG18823 (GeneID 59184) the deposit lists firefly reporter light, replicate 1 = 18645; Renilla control light, replicate 1 = 12736.

Only “Renilla control light, replicate 1” (3 entries from above):
Blos1 (GeneID 246439)	1632
CG3726 (GeneID 31525)	1273
bigmax (GeneID 43293)	1734
